This is one part of the list.
Assays:
Experiment in all cases: glycan array binding signal (z-score within array); higher = stronger binding
Conditions in all cases: glycan notation: IUPAC condensed, linker removed
[1] = biological target: Gal(b1-3)GalNAc(b1-3)Gal(a1-4)Gal(b1-4)Glc
In short: (§1)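 The Consortium for Functional Glycomics database supplied 3228 glycan arrays, of which those lacking an available protein sequence were dropped. The binding signal, a within-array Z-score, was averaged across arrays of the same protein sequence and across linkers. Negative scores can be read as non-binding.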

[2] = biological target: Gal(b1-3)GalNAc(b1-4)Gal(b1-4)Glc
In short: as §1

[3] = biological target: Gal(b1-3)GalNAc(b1-4)[Neu5Ac(a2-3)]Gal(b1-4)Glc
In short: as §1

Gal(b1-3)GlcNAc = biological target: Gal(b1-3)GlcNAc
In short: as §1

[4] = biological target: Gal(b1-3)GlcNAc(a1-3)Gal(b1-4)GlcNAc
In short: as §1

[5] = biological target: Gal(b1-3)GlcNAc(a1-6)Gal(b1-4)GlcNAc
In short: as §1

Gal(b1-3)GlcNAc(b1-2)Man = biological target: Gal(b1-3)GlcNAc(b1-2)Man
In short: as §1

[6] = biological target: Gal(b1-3)GlcNAc(b1-2)Man(a1-3)[Gal(b1-3)GlcNAc(b1-2)Man(a1-6)]Man(b1-4)GlcNAc(b1-4)GlcNAc
In short: as §1

[7] = biological target: Gal(b1-3)GlcNAc(b1-2)Man(a1-3)[Gal(b1-3)GlcNAc(b1-2)Man(a1-6)]Man(b1-4)GlcNAc(b1-4)[Fuc(a1-6)]GlcNAc
In short: as §1

[8] = biological target: Gal(b1-3)GlcNAc(b1-2)Man(a1-3)[GlcNAc(b1-4)][Gal(b1-3)GlcNAc(b1-2)Man(a1-6)]Man(b1-4)GlcNAc(b1-4)GlcNAc
In short: as §1

[9] = biological target: Gal(b1-3)GlcNAc(b1-2)[Gal(b1-3)GlcNAc(b1-6)]Man(a1-6)[Gal(b1-3)GlcNAc(b1-2)Man(a1-3)]Man(b1-4)GlcNAc(b1-4)GlcNAc
In short: as §1

[10] = biological target: Gal(b1-3)GlcNAc(b1-3)Gal(b1-3)GlcNAc
In short: as §1

[11] = biological target: Gal(b1-3)GlcNAc(b1-3)Gal(b1-4)Glc
In short: as §1

[12] = biological target: Gal(b1-3)GlcNAc(b1-3)Gal(b1-4)GlcNAc
In short: as §1

[13] = biological target: Gal(b1-3)GlcNAc(b1-3)Gal(b1-4)GlcNAc(b1-2)Man(a1-3)[Gal(b1-3)GlcNAc(b1-3)Gal(b1-4)GlcNAc(b1-2)Man(a1-6)]Man(b1-4)GlcNAc(b1-4)GlcNAc
In short: as §1

[14] = biological target: Gal(b1-3)GlcNAc(b1-3)Gal(b1-4)GlcNAc(b1-2)[Gal(b1-3)GlcNAc(b1-3)Gal(b1-4)GlcNAc(b1-6)]Man(a1-6)[Gal(b1-3)GlcNAc(b1-3)Gal(b1-4)GlcNAc(b1-2)Man(a1-3)]Man(b1-4)GlcNAc(b1-4)[Fuc(a1-6)]GlcNAc
In short: as §1

[15] = biological target: Gal(b1-3)GlcNAc(b1-3)Gal(b1-4)GlcNAc(b1-3)Gal(b1-4)GlcNAc(b1-2)[Gal(b1-3)GlcNAc(b1-3)Gal(b1-4)GlcNAc(b1-3)Gal(b1-4)GlcNAc(b1-6)]Man(a1-6)[Gal(b1-3)GlcNAc(b1-3)Gal(b1-4)GlcNAc(b1-3)Gal(b1-4)GlcNAc(b1-2)Man(a1-3)]Man(b1-4)GlcNAc(b1-4)[Fuc(a1-6)]GlcNAc
In short: as §1

[16] = biological target: Gal(b1-3)GlcNAc(b1-3)Gal(b1-4)GlcNAc(b1-6)[Gal(b1-3)GlcNAc(b1-3)]Gal(b1-4)Glc
In short: as §1

[17] = biological target: Gal(b1-3)GlcNAc(b1-3)Gal(b1-4)[Fuc(a1-3)]GlcNAc
In short: as §1

[18] = biological target: Gal(b1-3)GlcNAc(b1-3)Gal(b1-4)[Fuc(a1-3)]GlcNAc(b1-6)[Gal(b1-3)GlcNAc(b1-3)]Gal(b1-4)Glc
In short: as §1

[19] = biological target: Gal(b1-3)GlcNAc(b1-3)GalNAc
In short: as §1

[20] = biological target: Gal(b1-3)GlcNAc(b1-6)Gal(b1-4)GlcNAc
In short: as §1

[21] = biological target: Gal(b1-3)GlcNAc(b1-6)GalNAc
In short: as §1

[22] = biological target: Gal(b1-3)GlcNAc(b1-6)[Gal(b1-3)]GalNAc
In short: as §1

Gal(b1-3)GlcNAc6S = biological target: Gal(b1-3)GlcNAc6S
In short: as §1

[23] = biological target: Gal(b1-3)[Fuc(a1-4)]GlcNAc
In short: as §1

[24] = biological target: Gal(b1-3)[Fuc(a1-4)]GlcNAc(b1-2)Man
In short: as §1

[25] = biological target: Gal(b1-3)[Fuc(a1-4)]GlcNAc(b1-2)Man(a1-3)[Gal(b1-3)[Fuc(a1-4)]GlcNAc(b1-2)Man(a1-6)]Man(b1-4)GlcNAc(b1-4)[Fuc(a1-6)]GlcNAc
In short: as §1

[26] = biological target: Gal(b1-3)[Fuc(a1-4)]GlcNAc(b1-3)Gal(b1-3)[Fuc(a1-4)]GlcNAc
In short: as §1

[27] = biological target: Gal(b1-3)[Fuc(a1-4)]GlcNAc(b1-3)Gal(b1-4)[Fuc(a1-3)]GlcNAc
In short: as §1

[28] = biological target: Gal(b1-3)[Fuc(a1-4)]GlcNAc(b1-6)GalNAc
In short: as §1

[29] = biological target: Gal(b1-3)[GlcNAc(b1-6)]GalNAc
In short: as §1

[30] = biological target: Gal(b1-3)[Neu5Ac(a2-6)]GalNAc
In short: as §1

[31] = biological target: Gal(b1-3)[Neu5Ac(a2-6)]GlcNAc(b1-4)Gal(b1-4)Glc
In short: as §1

[32] = biological target: Gal(b1-3)[Neu5Ac(b2-6)]GalNAc
In short: as §1

Gal(b1-4)Gal = biological target: Gal(b1-4)Gal
In short: as §1

[33] = biological target: Gal(b1-4)GalNAc(a1-3)[Fuc(a1-2)]Gal(b1-4)GlcNAc
In short: as §1

[34] = biological target: Gal(b1-4)GalNAc(b1-3)[Fuc(a1-2)]Gal(b1-4)GlcNAc
In short: as §1

B1: LF82 (Escherichia coli) (protein)
chain: ADWGPCRTASGDPFIFVTSFTKNIQNPTDNVTGQTYPDFYQWALGDKYSGVCECPSPNPTEARPTLYKTESTLAAGHNSTYFKITNNLEVSTRVYIANVGNVQVPFINKSNSQPGRECDQPTFGWTTGSKGQLSLYIAKPFVGEQNIPQTIIVSVFGTKKENVYSSVPISQVLLSGKVTVTQGCELAAGTSLDIDFGEYQAHDFKGRTGQPPQNVQKIQKELTFNCTNISDGVHIYLSLEGTPNAAYPSAISLGNADVGAVIEDGKGNILKPNDSNSLLEMNPGSLYEYVKRKVTTTITAYPVSTTGKLPAAGDYSGVATMHVELDGGGGGGGGGGATTDLGAKGTLKFSLKISQGHHHHHH
glycan array binding signal (z-score) [1]: 0.365
glycan array binding signal (z-score) [2]: -0.817
glycan array binding signal (z-score) [3]: 0.679
glycan array binding signal (z-score) (Gal(b1-3)GlcNAc): -0.331
glycan array binding signal (z-score) [4]: -0.513
glycan array binding signal (z-score) [5]: -0.262
glycan array binding signal (z-score) (Gal(b1-3)GlcNAc(b1-2)Man): -1.28
glycan array binding signal (z-score) [6]: 0.23
glycan array binding signal (z-score) [7]: -0.589
glycan array binding signal (z-score) [8]: 1.02
glycan array binding signal (z-score) [9]: -0.229
glycan array binding signal (z-score) [10]: 0.419
glycan array binding signal (z-score) [11]: -0.76
glycan array binding signal (z-score) [12]: 1.03
glycan array binding signal (z-score) [13]: -0.239
glycan array binding signal (z-score) [14]: 0.204
glycan array binding signal (z-score) [15]: 1.42
glycan array binding signal (z-score) [16]: -0.759
glycan array binding signal (z-score) [17]: 0.726
glycan array binding signal (z-score) [18]: 1.49
glycan array binding signal (z-score) [19]: -0.805
glycan array binding signal (z-score) [20]: 0.843
glycan array binding signal (z-score) [21]: -0.789
glycan array binding signal (z-score) [22]: 0.491
glycan array binding signal (z-score) (Gal(b1-3)GlcNAc6S): -0.996
glycan array binding signal (z-score) [23]: 0.167
glycan array binding signal (z-score) [24]: 1.47
glycan array binding signal (z-score) [25]: 0.378
glycan array binding signal (z-score) [26]: -0.045
glycan array binding signal (z-score) [27]: -1.43
glycan array binding signal (z-score) [28]: 2.17
glycan array binding signal (z-score) [29]: -0.354
glycan array binding signal (z-score) [30]: -0.209
glycan array binding signal (z-score) [31]: 1.35
glycan array binding signal (z-score) [32]: -0.087
glycan array binding signal (z-score) (Gal(b1-4)Gal): -0.8
glycan array binding signal (z-score) [33]: -0.127
glycan array binding signal (z-score) [34]: 0.234

From the supplement of paper PMC8728848
